Legend:
[1] = system: wfs1ab^WT zebrafish larvae; experiment: Visual motor response in zebrafish larvae (basal mobility of controls); format: in vivo; conditions: at 3 µM in fish water
Male Swiss mice = experiment: Open field activity test (anxiolytic effect) and observation of animals; format: in vivo; conditions: IP 30 minutes before the test
Procedure: Drug administration: Route: intraperitoneal (IP), Method: by injection. The drug was administered under a volume calculated according to the individual body weight of each mouse (5 ml/kg), Frequency: once before the behavioral procedure, Treatment length: once, Timing: 30 minutes before behavioral procedure.
Health of animals was checked daily: general aspect of animals, activity, acute or delayed mortality. Weight was monitored the day of experiment.
The day of the test, animals were tested for general locomotor activity in the open field (OF) activity test for 10 min. The open field is made of opaque white plexiglass. The arena is composed of a large square box (50cm × 50cm × 50cm). Animal movements were followed by an overhead camera placed above the apparatus. Each mouse was placed in the center of the arena and allowed to move freely through the arena during its session. The locomotor activity was assessed by counting the total distance traveled measured in centimeters (cm) for the whole session time. The time spent in center area, and the number of defecations were also assessed.

Row | Structure (SMILES) | basal mobility / locomotion in wfs1ab^WT controls (in words) [1] | total locomotion in the open field (in words) (Male Swiss mice; 10 min session) | number of defecation (in words) (Male Swiss mice; compared to vehicle group)
1 | COc1ccc(C(=O)OC2CC3CCC(C2)N3C)cc1OC (stereo not shown) [Convolamine, (8-methyl-8-azabicyclo[3.2.1]octan-3-yl) 3,4-dimethoxybenzoate] | without affecting | no particular effect | does not modify
2 | CCCN(CCC)CCc1ccc(OC)c(OCCc2ccccc2)c1 [NE-100, reference compound] | failed to affect | – | –
